Laboratory results reported in the supplement of paper PMC3334620.
Whole data set: some 33,000 sequences, median “E-score (-0.5 to 0.5)” near -8e-05, cut for the highest 2% near 0.23. This is one part of the list.

What follows are sequences tested against T1, Nrg2 (UniProt P38082) (assay: PBM E-score (8-mer binding enrichment) (E-score (-0.5 to 0.5)); higher = stronger / more preferred TF binding). Settings: protein concentration: 100 nM; construct: GST-full length.
T1 sequence: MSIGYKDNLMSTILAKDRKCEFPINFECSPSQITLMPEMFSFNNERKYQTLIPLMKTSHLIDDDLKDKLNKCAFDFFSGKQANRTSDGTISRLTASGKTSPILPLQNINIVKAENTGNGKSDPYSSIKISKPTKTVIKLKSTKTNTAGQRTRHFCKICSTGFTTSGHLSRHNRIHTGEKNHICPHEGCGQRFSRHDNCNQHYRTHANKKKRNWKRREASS
In short: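 Universal all-10-mer Agilent arrays, fresh or stripped once, were converted to double-stranded form by primer extension. GST-tagged yeast transcription factors from PURExpress in vitro transcription/translation, full-length or DNA-binding domain only, were applied at about 100-200 nM and detected with fluorescent anti-GST. After masliner normalisation, the Universal PBM Analysis Suite scored each ungapped eight-base word together with its reverse complement by E-score.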

Row | Sequence | PBM E-score
1 | CAACGCTG | -0.0638
2 | AGTGCTCC | -0.213
3 | CGAACCAC | 0.0233
4 | AACCGATT | -0.0154
5 | GTAAATCA | 0.24
6 | AAAATGTT | -0.0675
7 | GCTGGACC | 0.0106
8 | GAGTAATC | 0.0241
9 | ATGTATCA | 0.172
10 | AGAATCAG | 0.272
11 | CAGGCATA | 0.0335
12 | GATAGCAC | -0.0654
13 | GACTGCTC | -0.00531
14 | TCCCACCA | -0.206
15 | GAAGCCGC | 0.0222
16 | CGGAACAG | -0.113
17 | AAGTACGA | 0.069
18 | GGGACGGA | -0.165
19 | CACACTAA | 0.21
20 | AAGGGTGA | 0.0471
21 | CCGTCTCC | -0.16
22 | CAGGAGCG | -0.0313
23 | GTGAGCGA | 0.0524
24 | AGGCTGAA | -0.0879
25 | GACCGTGC | -0.0878

Row | Sequence | PBM E-score
26 | AGAGACCC | -0.0602
27 | ACTCGTAT | 0.0397
28 | CTCGGGCC | -0.0126
29 | CAATGGAC | 0.0884
30 | ACTTAACT | 0.097
31 | CTGGGCTC | -0.174
32 | GAGCGAAA | 0.127
33 | CGAGTCCA | -0.256
34 | CCCAGACC | -0.0336
35 | ACCACAAC | 0.129
36 | ATTTAGCG | -0.0848
37 | GACTGCTA | -0.0675
38 | CCGCCCAG | -0.0404
39 | ACTGCATA | 0.0348
40 | TTAGCCAA | 0.0804
41 | TAACAGAA | 0.0398
42 | CGCACCCC | -0.0111
43 | CGTTCGCA | -0.166
44 | CCGGGTAG | 0.0243
45 | CGTAACGA | -0.0604
46 | ACTGCGGC | -0.0944
47 | GCTGGGAA | -0.00487
48 | ATCTCTCA | 0.236
49 | TAAGTGTA | -0.108
50 | CTCCCAGC | -0.0587

Row | Sequence | PBM E-score
51 | CCTTTATC | -0.231
52 | TAAGGATA | 0.0535
53 | ATTATTCA | 0.23
54 | CATTTTGA | 0.0224
55 | CGCTTAAA | 0.152
56 | CGACCCCG | -0.186
57 | AGACTACG | -0.254
58 | AAATATAG | 0.0725
59 | GCATACAC | 0.0177
60 | GAGGCTCA | -0.234
61 | CAGTGTAC | -0.0892
62 | TAACAATA | 0.132
63 | ACGGCCAC | -0.0448
64 | ATGGTTGA | 0.0416
65 | CACAACTA | 0.175
66 | CTCACAAA | 0.164
67 | AATTCAGG | 0.336
68 | CGCGTGGC | -0.123
69 | GGTGCTAA | -0.0231
70 | AATCAATG | 0.137
71 | AATCTACG | -0.0979
72 | GTGTGAGA | 0.0143
73 | AATGTTAG | 0.0134
74 | CACAAGCG | -0.0112
75 | GCTCCTGA | -0.071

Row | Sequence | PBM E-score
76 | GAGAGAAC | -0.0345
77 | CGCAGGGC | -0.0166
78 | ACTGGAAT | 0.0506
79 | TATCTTCA | 0.0863
80 | CGGAATAG | -0.0394
81 | CGGTTGCC | -0.0269
82 | ATACTAAT | 0.0959
83 | GAAGGGTA | 0.0766
84 | GCATTGGA | -0.172
85 | GCCATGCC | -0.00679
86 | CATAATAC | 0.101
87 | TCAAAGAA | -0.123
88 | ATTCTAGC | -0.122
89 | CAGATATG | 0.159
90 | GTGGGTTA | -0.0279
91 | AGGCTCAC | -0.221
92 | CACTTAAA | -0.063
93 | AGCATTTC | 0.071
94 | GACCCCCC | -0.31
95 | ATACTTCG | 0.0594
96 | CTTCGGAA | 0.18
97 | TAAAAGCA | -0.146
98 | AGGCCACC | -0.0409
99 | TCTTGGAA | 0.0146
100 | AGAATAAT | 0.173

Row | Sequence | PBM E-score
101 | GATCTTGA | 0.142
102 | CCAACAAC | 0.0219
103 | AAGCGCCG | 0.0527
104 | GGACGAAA | 0.0751
105 | CCTCTACA | -0.167
106 | AAAGTTGA | -0.0544
107 | ATGTTTGG | -0.00581
108 | ACGGCTGA | -0.0425
109 | AATCCTCC | -0.123
110 | CCTTCTTC | -0.147
111 | AGCGACAC | -0.0693
112 | AACTGTCG | 0.0422
113 | CTATCTCC | 0.0511
114 | AGCCGACA | -0.00533
115 | TGAACGCA | 0.0815
116 | CGGTGATC | -0.118
117 | AATCTTCG | 0.119
118 | ATAAGCAT | -0.179
119 | CAAGATAC | 0.0461
120 | CAGGTGGG | -0.0155
121 | ATGGAAGA | -0.0192
122 | ATGTATAA | 0.0366
123 | AAGCGATG | 0.00253
124 | GAAAACAA | 0.1
125 | TGGGCCAA | 0.0492

Row | Sequence | PBM E-score
126 | GGAGATTA | -0.00287
127 | CATTACGC | 0.089
128 | ATGTGGGC | -0.0014
129 | CACAGCTA | -0.0289
130 | ACGGACGG | -0.231
131 | CGATAGGA | -0.176
132 | GCTCCAGA | -0.117
133 | AATCCCAC | -0.0105
134 | CGTCGCCC | -0.282
135 | CCCCAGCC | -0.0514
136 | CTTAACTA | 0.0617
137 | ATCTTAAG | 0.173
138 | CTAGTGAG | 0.0153
139 | CGTCTGAC | 0.0122
140 | CAGGTGGA | -0.22
141 | TGTAACAA | 0.0452
142 | ATTCTCAG | 0.0383
143 | AACGCCCC | 0.155
144 | ATCAGAAA | -0.042
145 | ACTTTCAT | 0.0252
146 | AATAGGGC | 0.0062
147 | CTGCGATC | 0.0398
148 | AGCTGAGC | 0.00072
149 | AAAGGCAT | 0.0311
150 | AATCCTTG | 0.136

Row | Sequence | PBM E-score
151 | GGAGGCGA | -0.117
152 | CCTCATTA | 0.172
153 | ATTTGCTG | 0.125
154 | TCGCCAAA | 0.0791
155 | AGTTCTCG | 0.212
156 | AATATCAC | 0.0849
157 | AAGTCAAC | 0.0663
158 | CAGCGACC | -0.128
159 | ATACTTCA | 0.0101
160 | CAATAAGA | 0.0926
161 | ATCCCCGA | -0.0511
162 | ACGGCTCT | -0.0838
163 | ATCTTAAA | -0.0124
164 | CCTTGCTA | 0.133
165 | GAGCCCCC | -0.394
166 | CAAGCGGA | -0.141
167 | ATACAATG | 0.0698
168 | GGGGCACC | -0.228
169 | AACATGGC | -0.0158
170 | AATGGGAA | -0.2
171 | AAGAAGAT | 0.0205
172 | CGGTGAAA | 0.0878
